Type in all cases: cell-based
For experiment [1], the system named is MCF-7/DOX (adriamycin resistant cell strain). Kind of experiment: SRB cytotoxicity assay, MCF-7/DOX. As to conditions: Homo sapiens, MCF7-DOX, 72 h, read-out: ED50 MCF-7/DOX. How it is done:
(§1) Human tumor cells, including MCF-7 (human breast adenomatous tumor), MCF-7/DOX (adriamycin resistant cell strain), MRS-SA (human uterine sarcoma), MES-SA/DX5 (adriamycin resistant cell strain), A 549 (human non-small cell lung), SKOV-3 (human ovarian), SKMEL-2 (human melanoma), XF-498 (human CNS), HCT-15 (human colon) were incubated at 37° C. in the presence of 5% CO2 using a DMEM culture medium. The respective cells were seeded into each well of 96-well plates at a concentration of 2×10^3˜5×10^3 cells/well. […] Each cell line of the resultant plates was fixed with trichloroacetic acid (TCA), stained with 0.4% SRB solution and rinsed with 1% acetic acid. Thereafter, the dye was dissolved in 10 mM Tris base to measure the optical density (OD) at 520 nm.

Experiment [2] has as its system MES-SA (human uterine sarcoma). Kind of experiment: SRB cytotoxicity assay, MES-SA. Conditions: 72 h, read-out: ED50 MES-SA. Here is the method: as §1
Background: In SRB staining, fixed cells bind dye roughly in proportion to their protein.

Experiment [3] deals with A 549 (human non-small cell lung). In words: SRB cytotoxicity assay, A549. As to conditions: A549, 72 h, read-out: ED50 A549. How it is done:
as §1

Experiment [4] relates to SKOV-3 (human ovarian). Kind of experiment: SRB cytotoxicity assay, SK-OV-3. As to conditions: SK-OV-3, 72 h, read-out: ED50 SK-OV-3. How it is done: as §1

In the case of `COc1cc2c(c(OC)c1OC)-c1ccc(OC)c(=O)cc1[C@@H](NC(C)=O)CC2` [Colchicine], the EC50 in experiment [1] is 183 nM; in experiment [2], 16 nM; in experiment [3], 9 nM; in experiment [4], 8 nM.

Source of the values: patent US7119229B2 (priority 2001, dated 2006).
